Values from PubChem BioAssay AID743454 (Peter MacCallum Cancer Centre, 2014).

Aim: 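Search for knock-downs that restore vorinostat killing in resistant colon cancer cells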 (primary screen)
System: human HCT116-VR colon cancer cells, selected for vorinostat resistance
Reagent: siRNA pool against human genes, 40 nM siRNA pool
Duration: vorinostat for 24 h, read-out about 72 h after transfection
Treatment: vorinostat at 2.5 µM final
Read-out: 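Two measures, CellTiter-Fluor viability and luminescent caspase 3/7 activity, each as fold change against same-plate mock wells, mean of duplicates, then screen-wide robust z-score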
Reading the numbers: viability robust z-score: higher = more viable cells than screen typical; caspase robust z-score: higher = more caspase 3/7 activity than screen typical
Rule for the call: 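a knock-down is a hit when classed RV1 or RV2 for lowered viability, or CA1 or CA2 for caspase activation; those lethal without drug were dropped; hits were retested singly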
In all, the deposit lists about 18,000 reagents; this is a part drawn at random. Of all reagents, 450 (2.5%) got an active call. 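Single biological run; no consistent viability z cut-off exists, so the class columns, not z-scores, define the calls.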 A number with no mark means an inactive call.

Gene	viability hit class	caspase hit class	viability robust z-score	caspase robust z-score
OR11L1 (olfactory receptor family 11 subfamily L member 1)	no change	no change	-0.01	-0.4
SIPA1L3 (signal induced proliferation associated 1 like 3)	no change	no change	-0.45	2
SNX21 (sorting nexin family member 21)	no change	no change	-0.08	-0.46
IGF2 (insulin like growth factor 2)	no change	no change	1.8	0.33
GIT2 (GIT ArfGAP 2)	no change	no change	-0.24	-0.8
NDUFA5 (NADH:ubiquinone oxidoreductase subunit A5)	no change	no change	-1.15	0.36
LYLDT1 (lysosomal-lipid droplet tether 1)	no change	no change	0.12	-0.18
TWF2 (twinfilin actin binding protein 2)	no change	no change	0.83	0.46
EML1 (EMAP like 1)	no change	no change	0.6	-1.12
ZNF33A (zinc finger protein 33A)	no change	no change	0.68	-0.02
PIK3CG	no change	no change	0.3	1.44
TAS2R16 (taste 2 receptor member 16)	no change	no change	-1.25	-1.05
ACOX3 (acyl-CoA oxidase 3, pristanoyl)	no change	no change	-0.2	-0.64
DEFA3 (defensin alpha 3)	no change	no change	0.64	0.53
AJAP1 (adherens junctions associated protein 1)	no change	no change	-0.09	-0.76
PRB2 (proline rich protein BstNI subfamily 2)	no change	no change	-0.96	-0.24
MRPS26 (mitochondrial ribosomal protein S26)	no change	no change	-0.34	-0.82
C1orf21 (chromosome 1 open reading frame 21)	no change	no change	1.71	2.12
CDH17 (cadherin 17)	no change	no change	2.18	-0.66
PYDC2 (pyrin domain containing 2)	no change	no change	0.33	0.18
SHISA2 (shisa family member 2)	no change	no change	-0.92	2.97
GABRA2 (gamma-aminobutyric acid type A receptor subunit alpha2)	no change	no change	-0.05	-0.28
TGFB1 (transforming growth factor beta 1)	no change	no change	0.34	-0.08

Part of the list above, reformatted.
MRPS26 (mitochondrial ribosomal protein S26) → viability hit class = no change; caspase hit class = no change; viability robust z-score = -0.34; caspase robust z-score = -0.82
C1orf21 (chromosome 1 open reading frame 21) → viability hit class = no change; caspase hit class = no change; viability robust z-score = 1.71; caspase robust z-score = 2.12
